## Percent effect of library compounds

Results are given as percent effect. The record does not define 0% and 100%; most values in the screen are far below 50% and negative numbers occur (in some assays of this library far below -100). The compounds are a random part of those screened. Two or more numbers in one place are separate tests of the same structure; such repeats can differ widely.

A: 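Phenotypic screen: M. tuberculosis growth, cholesterol and DPPC medium, 4 days; the read-out is not stated. Tested at 50 µM. Direction is inferred from retests: higher values go with more growth inhibition. Of about 69,000 compounds tested this way, about 370 (0.54%) reached 50% or more in at least one test.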
B: 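Growth of Mycobacterium tuberculosis over 3 days (7H9 medium with glucose and tyloxapol); the read-out is not stated. Compounds at 50 µM. Direction is inferred from retests: higher values go with more growth inhibition. About 69,000 compounds were tested under these conditions; 1.1% (about 760) showed 50% or more at least once.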

Compound	A	B
O=S(=O)(c1cn[nH]c1)N1C[C@@H](O)[C@H](N2CCc3ccccc3C2)C1	-13.79	-10.2
c1ccc(N2CCC(NCCc3ccc(-n4cccn4)cc3)CC2)nc1	-35.2	-40.01
Cc1nnc(CSc2ccccn2)o1	-26.64	-25.91
Cc1nc(-c2ccccc2)sc1CNC1CCc2ncnn2C1 (centres undefined)	7.009	10.18
CNS(=O)(=O)CC(=O)NC(C)Cc1ccc(-c2ccccc2)cc1 (centres undefined)	11.78	5.214
CCOc1ccc(C(=O)Nc2c(C)nc3scc(C)n3c2=O)cc1	2.836	-37.47
CCSc1ccc(C(=O)N2CCCCC2C(=O)NC(C)(C)C)cn1 (centres undefined)	8.128	1.651
CCc1noc(C(C)N2CCN(c3ccc(C#N)cc3F)CC2)n1 (centres undefined)	10.21	-1.628 & 20.46
CCS(=O)(=O)N1CCC2(CN(C(=O)c3cn(C)cn3)C2)C1	9.436	-1.551 & -8.596
CC(c1nc(C2CC2)no1)N1CCN(CCOCC(F)(F)F)CC1 (centres undefined)	13.62	28.88
Cc1nc(C)n(CC2CCCN(CC(=O)Nc3cc(C)on3)C2)n1 (centres undefined)	-4.213	-10.78
COc1cccc2sc(N3CC(OC(C)=O)C3)nc12	-11.98	1.521
CN(C)C1CCCN(C(=O)NCCc2cc(F)ccc2F)C1 (centres undefined)	-6.472	-3.441
O=C(NCc1ccncc1)C1CN(c2nc3ccccc3s2)CCN1 (centres undefined)	-2.206	-2.878
O=C(c1ccc(-c2cn[nH]c2)nc1)N1CCC(N2CCOCC2)CC1	3.178	-11.27 & -0.6527
Cc1cccc(NCC(=O)NC2(C#N)CCCC2)c1C(=O)N1CCCC1	3.62	-9.798
CC(=O)c1cccc(NC(=O)C2CN(S(=O)(=O)C3CC3)C2)c1	1.911	-1.707 & -5.116
COc1ccc(NC(=O)Nc2c(O)c3ccccc3oc2=O)cc1	-30.65	-18.05
CCc1ccc(S(=O)(=O)N2CCC3(CC(C(=O)NC)=NO3)C2)cc1 (centres undefined)	-2.389	1.89
CN(CC(=O)NCC(=O)Nc1ccc(F)cc1)Cc1cccs1	2.653	4.132
CCc1oc(C(=O)NC(C)Cc2cnccn2)cc1CN1CCCC1 (centres undefined)	-5.451	20.72
Cc1nc(CN2CCOCC3(CCN(c4cnccn4)CC3)C2)cs1.O=C(O)C(F)(F)F	-20.96	14.99
Cc1cnn(CC2CN(CC(=O)Nc3cc(C)no3)CCO2)c1 (centres undefined)	2.271	-7.751
CCNC(=O)c1ccnc(N2CCCC(COc3ccccc3C)C2)c1 (centres undefined)	15.97	33.13 & 8.376
CCOCCN1CCN(c2ccc(CN(C)C)cn2)CC1	-23.88	-20.97
C=C(C)COCCNC(=O)C1CCCN1C(C)=O (centres undefined)	-7.838	18.31
Cc1nccn1CC(=O)N1CC(Cc2nccc3ccn(C)c23)C1	-18.33	-26.1
COc1ccccc1S(=O)(=O)N1CCC(Oc2cccnn2)CC1	-18.8	-4.683 & -2.881
CN(Cc1ccccc1)C(=O)c1nc(S(C)(=O)=O)n2ccccc12	-5.573	-19.74
O=c1ncn(-c2cccc(F)c2)c2ncccc12	-2.801	2.194 & 5.874
[H][C@@]12CCN(c3ccc(C)nn3)C[C@]1([H])[C@H](C(=O)NCCOC)CCO2	-16.05	-26.89
Cc1cc(C(O)CCNC(=O)c2ccc(Cl)s2)c(C)o1 (centres undefined)	31.26	52.83
CCOC1COC2(CCN(CC3CC3)CC2)C1.O=C(O)C(F)(F)F (centres undefined)	-6.016	0.1819
COCc1nnc(NC(=O)c2cn(C(C)C)c3ccc(OC)cc23)s1	7.359	13.19 & 26.12
Cc1cnc(NS(=O)(=O)c2cccc(C#N)c2)s1	19.24	-15.27
Cc1cnn(CCNCc2nc(Cc3ccccc3)no2)c1	-2.623	-9.297
Cc1cnccc1-c1cnn(CCNC(=O)c2cccnc2)c1C1CC1.Cl	5.888	-2.638
Cn1cc(N2CC3(CCN(CC4CC4)C3)CC2=O)cn1.O=C(O)C(F)(F)F (centres undefined)	0.2015	6.308 & -4.774
CN(Cc1ccsc1)C(=O)c1cccc(NS(C)(=O)=O)c1	-5.595	6.265
Cc1nc(CNCC2CCCN2c2cccnn2)cs1 (centres undefined)	9.363	-7.372
Cc1nccn1Cc1nnc(C2CCCN(c3cnccn3)C2)n1C (centres undefined)	-27.93	-9.193
Cc1ccc(C(=O)NCC(O)c2ccc(Cl)s2)c(=O)[nH]1 (centres undefined)	5.345	1.602 & 15.42
Cc1ccc(OCCN2CCCC(c3cc(C(N)=O)[nH]n3)C2)cc1 (centres undefined)	17.45	18.4
Cn1ccc(C(=O)NC2CCC23CCN(Cc2cnn(C)c2)CC3)c1.O=C(O)C(F)(F)F (centres undefined)	8.082	16.86
O=C(CCNc1ncccn1)NCc1ccc(Br)s1	-1.044	7.005
Cc1nc(CN(C)C(=O)CNC(=O)c2ccc(C#N)cc2)cs1	-24.02	6.893 & -6.188
O=C(NCCn1nc(-n2cncn2)ccc1=O)c1ccccc1Br	13.61	-0.6215
CC(C)c1n[nH]c(C2CN(Cc3ncc[nH]3)CCO2)n1 (centres undefined)	-22.95	-34.73
[H][C@]12CC[C@]([H])(CN(Cc3nnc(C4CC4)o3)C1)N(Cc1ccccc1)C2	15.43	6.023
CN(C)CCn1c2c(ccc1=O)CCN(Cc1cnn(C)c1)CC2.O=C(O)C(F)(F)F.O=C(O)C(F)(F)F	-15.37	-35.36
CCn1ncc2[nH]c(-c3cc(OC)c(OC)cc3OC)nc21	-17.92	-3.013
CCC(=O)N1CCC(c2ncncc2C)CC1	7.103	2.394
CCc1nc(C2CCCN2Cc2nc(C3CC3)no2)no1 (centres undefined)	-9.789	10.88
CC(C)N1c2sc(-c3ccccc3)nc2CC1C(=O)NCCCO (centres undefined)	-10.59	-44.88 & 3.227
CCCNC(=O)c1cc2c(s1)CCN2c1ncccn1	10.13	8.658
CNC(=O)CN1CCOC(c2cccc(N)n2)C1 (centres undefined)	17.29	-10.5
COCC(=O)NCc1cc(=O)n2c(n1)CN(CC1CCOC1)CCC2.O=C(O)C(F)(F)F (centres undefined)	-23.89	-12.99
Cc1cnc(C)c(N2CCCC(CC3CC3)(C(=O)O)C2)n1 (centres undefined)	-9.854	18.88
O=C(O)c1ccc(F)c(S(=O)(=O)N2CCOc3ccccc32)c1	9.606	-8.923
CCc1nc(N2CCN(c3ncccc3C#N)CC2)c2cnn(C)c2n1	-17.06	-19.23 & -2.961
Cc1ncccc1NS(=O)(=O)Cc1cccc(F)c1	8.984	-0.9675 & -19.33
CN1CCN(c2ccccc2CNC(=O)CSC(F)(F)F)CC1	-11.72	-1.785
O=C(O)C(F)(F)F.O=C(O)C(F)(F)F.[H][C@]12CCC(=O)N(c3cccnc3)[C@@]1([H])CCN2c1ncc(CC)cn1	-0.1003	18.68
O=C(O)C(F)(F)F.O=C(O)C(F)(F)F.O=C(O)C(F)(F)F.c1coc(CN2CCC3(CC2)COCCN(CCN2CCCC2)C3)c1	-4.659	-32.55 & -0.9256
O=C(c1cccnc1)N1CCCC1C1CCN(Cc2ccccc2)CC1 (centres undefined)	-4.184	-16.68

For reference, 7 entries once more:

Compound	A	B
O=C(O)C(F)(F)F.O=C(O)C(F)(F)F.[H][C@]12CCC(=O)N(c3cccnc3)[C@@]1([H])CCN2c1ncc(CC)cn1	-0.1003	18.68
CCc1nc(N2CCN(c3ncccc3C#N)CC2)c2cnn(C)c2n1	-17.06	-19.23 & -2.961
CNC(=O)CN1CCOC(c2cccc(N)n2)C1 (centres undefined)	17.29	-10.5
Cc1cnn(CC2CN(CC(=O)Nc3cc(C)no3)CCO2)c1 (centres undefined)	2.271	-7.751
Cc1nc(CNCC2CCCN2c2cccnn2)cs1 (centres undefined)	9.363	-7.372
CN(CC(=O)NCC(=O)Nc1ccc(F)cc1)Cc1cccs1	2.653	4.132
COc1ccccc1S(=O)(=O)N1CCC(Oc2cccnn2)CC1	-18.8	-4.683 & -2.881

From ChEMBL document CHEMBL3988442, “University of Dundee, Small-Polar-MMV Screening Library” (2021).